{"sequences": {"note": "Chains of the proteins cited; added tags and fusions are not shown. Lines headed by an entry give the natural chain unless they say otherwise; changes in a name come on top.", "UniProt O94782": "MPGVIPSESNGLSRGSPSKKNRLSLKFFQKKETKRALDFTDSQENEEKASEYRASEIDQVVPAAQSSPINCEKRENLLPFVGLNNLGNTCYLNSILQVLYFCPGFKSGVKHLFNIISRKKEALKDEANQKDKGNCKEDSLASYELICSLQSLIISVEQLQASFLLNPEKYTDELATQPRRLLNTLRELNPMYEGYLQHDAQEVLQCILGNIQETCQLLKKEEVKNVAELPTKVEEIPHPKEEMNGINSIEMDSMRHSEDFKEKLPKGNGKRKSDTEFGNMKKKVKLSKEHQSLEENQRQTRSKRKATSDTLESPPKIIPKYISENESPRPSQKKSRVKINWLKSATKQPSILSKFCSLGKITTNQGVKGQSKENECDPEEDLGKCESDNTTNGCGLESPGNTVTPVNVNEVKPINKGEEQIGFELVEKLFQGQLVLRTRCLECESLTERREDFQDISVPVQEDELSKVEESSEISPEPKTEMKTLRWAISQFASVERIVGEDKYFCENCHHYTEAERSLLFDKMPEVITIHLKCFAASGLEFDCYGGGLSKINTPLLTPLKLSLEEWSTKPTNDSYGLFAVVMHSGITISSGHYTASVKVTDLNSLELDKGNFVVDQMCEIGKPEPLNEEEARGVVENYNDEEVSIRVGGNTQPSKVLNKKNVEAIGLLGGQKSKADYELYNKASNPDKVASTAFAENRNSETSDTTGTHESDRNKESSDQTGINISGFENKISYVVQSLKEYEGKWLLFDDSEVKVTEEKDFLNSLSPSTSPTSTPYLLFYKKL"}, "source": "PubChem BioAssay (NCATS)", "key": {"[1]": {"assay": "qHTS of pediatric cancer cell lines to identify multiple opportunities for drug repurposing: Confirmatory screen for SK-N-MC cells (AID 1347111); further: nearly all actives have a fitted effect of over 70% in size; further: potency means the concentration at half of the fitted maximal effect", "procedure,_shortened": "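SK-N-MC cells at 500-1,000 cells/well in growth media were pre-incubated 5 h, then exposed to compounds at 11-point dilutions for 48 h at 37 degrees C, 5% CO2. Viability was read as CellTiter-Glo luminescence.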"}, "[2]": {"assay": "Quantitative High-Throughput drug screen in 47 multiple myeloma cell lines against the NCATS MIPE library collection: Karpas25_ECACC cell viability assay (AID 1918968; further: nearly all actives have a fitted effect of over 35% in size)", "details": "Karpas25 myeloma viability, CellTiter-Glo ATP, 48 h; viability (% of control): at 45.8 µM (top of the series)", "procedure,_shortened": "(§1)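 We plated 500 myeloma cells per well, pinned in MIPE 4.0 compounds, and incubated for 48 hours at 37C. ATP was then quantified with CellTiter-Glo, with DMSO and media-only wells defining 100% and 0%.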"}, "[3]": {"assay": "Quantitative High-Throughput drug screen in 47 multiple myeloma cell lines against the NCATS MIPE library collection: KMS12BM_JCRB cell viability assay (AID 1918971)", "procedure,_shortened": "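Inhibition of cell viability is measured here. Each line was plated at 500 cells per well, treated with MIPE 4.0 drugs, kept 48 hours at 37C, then assayed for ATP content by CellTiter-Glo luminescence.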"}, "[4]": {"assay": "Quantitative High-Throughput drug screen in 47 multiple myeloma cell lines against the NCATS MIPE library collection: KMS12PE_JCRB cell viability assay (AID 1918972)", "procedure,_shortened": "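qHTS of the MIPE 4.0 collection: 500 myeloma cells/well, 48 h drug exposure at 37C in 5% CO2, then CellTiter-Glo for 5 min at room temperature before luminescence reading.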"}, "[5]": {"assay": "Quantitative High-Throughput drug screen in 47 multiple myeloma cell lines against the NCATS MIPE library collection: MM1S_ATCC cell viability assay (AID 1918980)", "procedure,_shortened": "(§2)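 Viability after 48 h drug exposure was measured as ATP-dependent luminescence. Cells, 500 per well, sat at 37 °C under 5% CO2; DMSO wells set 100%, media-only wells 0%.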"}, "[6]": {"assay": "Quantitative High-Throughput drug screen in 47 multiple myeloma cell lines against the NCATS MIPE library collection: XG6_PLB cell viability assay (AID 1919865)", "details": "XG6 myeloma viability, CellTiter-Glo ATP luminescence, 48 h; viability (% of control): at 45.8 µM (top of the series)", "procedure,_shortened": "as §2"}, "[7]": {"assay": "Quantitative High-Throughput drug screen in 47 multiple myeloma cell lines against the NCATS MIPE library collection: PCM6_Riken cell viability assay (AID 1919870)", "procedure,_shortened": "as §2"}, "[8]": {"test_system": "Zika virus NS2B-NS3 protease (unlinked complex)", "assay": "Confirmatory screen GU AMC qHTS for Zika virus inhibitors (AID 1347153)", "procedure,_shortened": "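Noncovalent NS2B hydrophilic domain/NS3 protease complex (25 nM) in 10 mM Tris-HCl pH 8.0, 0.01% Tween 20 was preincubated 15 min at room temperature with compounds. Then 10 µM AMC substrate (Km 18.3 µM) was added; fluorescence was read over 15 min and fitted to a 4-parameter Hill equation.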"}, "[9]": {"target": "Ubiquitin carboxyl-terminal hydrolase 1 (Homo sapiens) (UniProt O94782)", "assay": "Inhibitors of USP1/UAF1: Pilot qHTS (AID 504865)", "procedure,_shortened": "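USP1/UAF1 complex (1nM) preincubated with compound 15 min at room temperature, then Ub-Rho substrate (150nM final) added. Fluorescence read kinetically at 480/540 nm, 6 reads every 60 seconds. Buffer: 50mM HEPES pH 7.8, 0.5mM EDTA, 0.1 mg/ml BSA, 1mM TCEP, 0.01% Tween-20.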"}, "[10]": {"test_system": "W2", "assay": "qHTS profiling for inhibitors of Plasmodium falciparum proliferation (AID 504749)", "details": "P. falciparum in erythrocytes, SYBR Green DNA, 72 h; series mostly up to 28.7 µM", "procedure,_shortened": "(§3)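 Readout was DNA-dye fluorescence from lysed cultures, ex 485/em 535 nm. Parasitized red cells had grown 72 h with compound; data scaled between 0.29 uM artemisinin and DMSO wells and corrected using vehicle-only plates.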"}, "[11]": {"test_system": "7G8", "assay": "qHTS profiling for inhibitors of Plasmodium falciparum proliferation (AID 504749)", "details": "P. falciparum in erythrocytes, SYBR Green DNA, 72 h; series mostly up to 28.7 µM", "procedure,_shortened": "as §3"}, "[12]": {"test_system": "ECU", "assay": "qHTS profiling for inhibitors of Plasmodium falciparum proliferation (AID 504749)", "details": "P. falciparum in erythrocytes, SYBR Green DNA, 72 h; series mostly up to 28.7 µM", "procedure,_shortened": "as §3"}, "[13]": {"assay": "qHTS of pediatric cancer cell lines to identify multiple opportunities for drug repurposing: Confirmatory screen for NB-EBc1 cells (AID 1347115)", "details": "NB-EBc1 neuroblastoma cells, viability (cytotoxicity); activity change, negative = cytotoxic: at 45.9 µM (top of the series)", "procedure,_shortened": "(§4)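 Viability after 48 h compound treatment at 37C, 500-1,000 cells/well, read as ATP luminescence with CellTiter-Glo. Primary screens used 11-point (MIPE, 0.78 nM-46 µM) or 8-point (NPC, 0.59 nM-46 µM) final concentrations; follow-up screens used 11-point dilutions.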"}, "[14]": {"assay": "qHTS of pediatric cancer cell lines to identify multiple opportunities for drug repurposing: Confirmatory screen for BT-37 cells (AID 1347117)", "procedure,_shortened": "as §4"}, "[15]": {"assay": "Quantitative High-Throughput drug screen in 47 multiple myeloma cell lines against the NCATS MIPE library collection: NCIH929_DSMZ cell viability assay (AID 1918978)", "details": "NCI-H929 myeloma viability, CellTiter-Glo ATP, 48 h", "procedure,_shortened": "as §2"}, "[16]": {"assay": "qHTS of pediatric cancer cell lines to identify multiple opportunities for drug repurposing: Confirmatory screen for SK-N-SH cells (AID 1347129)", "procedure,_shortened": "as §4"}, "[17]": {"assay": "Quantitative High-Throughput drug screen in 47 multiple myeloma cell lines against the NCATS MIPE library collection: AMO1_DSMZ cell viability assay (AID 1918927)", "details": "AMO1 myeloma cells viability, CellTiter-Glo ATP luminescence, 48 h", "procedure,_shortened": "as §1"}, "[18]": {"test_system": "CP211", "assay": "qHTS profiling for inhibitors of Plasmodium falciparum proliferation (AID 504749)", "details": "P. falciparum in erythrocytes, SYBR Green DNA, 72 h; series mostly up to 28.7 µM", "procedure,_shortened": "as §3"}, "[19]": {"assay": "qHTS of pediatric cancer cell lines to identify multiple opportunities for drug repurposing: Confirmatory screen for RD cells (AID 1347124)", "details": "RD rhabdomyosarcoma cell viability; activity change, negative = cytotoxic: at 45.9 µM (top of the series)", "procedure,_shortened": "as §4"}, "[20]": {"assay": "S16 Schwann cell PMP22 intronic element firefly luciferase assay (AID 624032)", "procedure,_shortened": "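Rat S16 Schwann cells stably carrying firefly luciferase driven by a PMP22 intronic element, in 10% FBS, treated 24 h at 37 C. ONE-Glo luminescence normalized to PTC124 control and DMSO (0%); curves classed by r2, magnitude and activity.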"}}, "note": "Inconclusive means that the source gave no clear call. Such entries were picked first, then a sample of the others. For some assays here: Where the call is inconclusive, the potency comes from a doubtful curve fit. Activity calls are given as the source filed them. The call rests on the fitted dose curve; in most records, active means well fitted curve in the direction sought with a large enough effect; inconclusive means small, poorly fitted or top-dose-only effect, or another doubt; inactive means no such curve, though single readings can be large; an effect the other way counts as inactive or inconclusive."}
{"smiles": "COC(=O)[C@@H]1[C@H]2C[C@@H]3c4[nH]c5ccccc5c4CCN3C[C@@H]2CC[C@@H]1O", "values": [{"measurement": "Potency", "setting": "[1]", "result": "inactive"}, {"measurement": "Potency", "setting": "[2]", "result": "inactive"}, {"measurement": "Potency", "setting": "[3]", "result": "inconclusive: 10.5 nM [rising, full curve, poor fit]"}, {"measurement": "Potency", "setting": "[4]", "result": "inactive"}, {"measurement": "Potency", "setting": "[5]", "result": "inactive"}, {"measurement": "Potency", "setting": "[6]", "result": "inactive"}, {"measurement": "Potency", "setting": "[7]", "result": "inactive"}]}
{"smiles": "Clc1ccc(C(c2ccc(Cl)cc2)n2cc[n+](CC(OCc3ccc(Cl)cc3Cl)c3ccc(Cl)cc3Cl)c2)cc1", "note": "(configuration not stated)", "values": [{"measurement": "Potency", "setting": "[7]", "result": "active: 6620 nM"}]}
{"smiles": "C=CC1(C)C=C2CC[C@H]3[C@@](C)(C(=O)O)CCC[C@]3(C)C2CC1", "note": "(some centres not stated)", "values": [{"measurement": "Potency", "setting": "[8]", "result": "inconclusive: 34300 nM [inhibitor, partial curve]"}]}
{"smiles": "CC1CC(OC(=O)c2ccccc2O)CC(C)(C)C1", "note": "(configuration not stated)", "values": [{"measurement": "Potency", "setting": "[9]", "result": "inactive"}, {"measurement": "Potency", "setting": "[10]", "result": "inconclusive: 1510 nM [inhibitor, partial curve, poor fit]"}]}
{"smiles": "C[C@@H]1O[C@@H](OC[C@H]2O[C@@H](Oc3c(-c4ccc(O)c(O)c4)oc4cc(O)cc(O)c4c3=O)[C@H](O)[C@@H](O)[C@@H]2O)[C@H](O)[C@H](O)[C@H]1O", "values": [{"measurement": "Potency", "setting": "[9]", "result": "inactive"}]}
{"smiles": "CCc1oc2ccccc2c1C(=O)c1cc(Br)c(O)c(Br)c1", "values": [{"measurement": "Potency", "setting": "[9]", "result": "active: 31600 nM"}, {"measurement": "Potency", "setting": "[8]", "result": "active: 17100 nM"}, {"measurement": "Potency", "setting": "[11]", "result": "inactive"}]}
{"smiles": "CCS(=O)(=O)CCn1c([N+](=O)[O-])cnc1C", "values": [{"measurement": "Potency", "setting": "[12]", "result": "inactive"}]}
{"smiles": "Cn1cc(CNCC2CCN(c3ncc(C(=O)NO)cn3)CC2)c2ccccc21", "values": [{"measurement": "Potency", "setting": "[1]", "result": "inconclusive: 73.7 nM [cytotoxic, full curve, poor fit]"}, {"measurement": "Potency", "setting": "[13]", "result": "inconclusive: 737 nM [cytotoxic, full curve, poor fit]"}, {"measurement": "Potency", "setting": "[14]", "result": "inconclusive: 147 nM [cytotoxic, full curve, poor fit]"}, {"measurement": "Potency", "setting": "[15]", "result": "active: 20.9 nM"}, {"measurement": "Potency", "setting": "[5]", "result": "active: 16.6 nM"}, {"measurement": "Potency", "setting": "[7]", "result": "active: 37.2 nM"}]}
{"smiles": "CN(C)Cc1c(C(=O)NCCOc2ccc(C(=O)NO)cc2)oc2ccccc12", "values": [{"measurement": "Potency", "setting": "[1]", "result": "active: 585 nM"}, {"measurement": "Potency", "setting": "[16]", "result": "active: 3720 nM"}, {"measurement": "Potency", "setting": "[5]", "result": "active: 469 nM"}]}
{"smiles": "N=c1nc(N2CCCCC2)cc(N)n1O", "values": [{"measurement": "Potency", "setting": "[17]", "result": "inactive"}, {"measurement": "Potency", "setting": "[3]", "result": "inconclusive: 14.8 nM [rising, full curve, poor fit]"}, {"measurement": "Potency", "setting": "[4]", "result": "inactive"}, {"measurement": "Potency", "setting": "[15]", "result": "inconclusive: 5.9 nM [rising, full curve]"}, {"measurement": "Potency", "setting": "[5]", "result": "inactive"}]}
{"smiles": "NC(N)=N/N=C/c1c(Cl)cccc1Cl", "values": [{"measurement": "Potency", "setting": "[11]", "result": "active: 11200 nM"}, {"measurement": "Potency", "setting": "[18]", "result": "inconclusive: 15100 nM [inhibitor, single point]"}, {"measurement": "Potency", "setting": "[12]", "result": "inconclusive: 10000 nM [inhibitor, single point]"}, {"measurement": "Potency", "setting": "[10]", "result": "active: 12000 nM"}]}
{"smiles": "O=C(O)[C@@H]1[C@H]2C[C@H]3c4[nH]c5ccccc5c4CCN3C[C@@H]2CC[C@@H]1O", "values": [{"measurement": "Potency", "setting": "[8]", "result": "inactive"}]}
{"smiles": "O=C(Nc1cn[nH]c1-c1nc2ccc(CN3CCOCC3)cc2[nH]1)NC1CC1", "values": [{"measurement": "Potency", "setting": "[13]", "result": "inactive"}, {"measurement": "Potency", "setting": "[14]", "result": "inactive"}, {"measurement": "Potency", "setting": "[19]", "result": "inactive"}, {"measurement": "Potency", "setting": "[16]", "result": "inactive"}, {"measurement": "Potency", "setting": "[17]", "result": "inconclusive: 743 nM [cytotoxic, full curve, poor fit]"}, {"measurement": "Potency", "setting": "[3]", "result": "active: 5900 nM"}, {"measurement": "Potency", "setting": "[4]", "result": "inconclusive: 662 nM [cytotoxic, full curve, poor fit]"}, {"measurement": "Potency", "setting": "[6]", "result": "active: 743 nM"}]}
{"smiles": "O=C(NCCc1c[nH]c2ccccc12)c1cccnc1", "values": [{"measurement": "Potency", "setting": "[12]", "result": "inactive"}]}
{"smiles": "C#C[C@]1(OC(C)=O)CC[C@H]2[C@@H]3CCC4=C/C(=N/O)CC[C@@H]4[C@H]3CC[C@@]21CC", "values": [{"measurement": "Potency", "setting": "[9]", "result": "inconclusive: 20000 nM [inhibitor, full curve]"}, {"measurement": "Potency", "setting": "[20]", "result": "active: 8090 nM"}, {"measurement": "Potency", "setting": "[11]", "result": "inconclusive: 7940 nM [inhibitor, partial curve, poor fit]"}]}
